From the supplement of paper PMC11348887
Where a name gives a salt, the structure may show the parent alone. The list shows a part of the results. Small differences around the control level are noise.

Experiments:
Conditions in all cases: 5 µM; treatment: days 7-14 after plating, readout day 21
[1] = system: hPSC-derived cortical neurons (WA09); experiment: nucleus area z-score vs screen plate; higher = larger nuclei (more mature)
[2] = system: hPSC-derived cortical neurons (WA09); experiment: total neurite length per nucleus (MAP2) z-score; higher = more neurite growth
[3] = system: hPSC-derived cortical neurons (WA09); experiment: nucleus roundness z-score vs screen plate; higher = rounder nuclei (more mature)
[4] = system: hPSC-derived cortical neurons (WA09); experiment: KCl-induced FOS+/EGR-1+ double-positive nuclei fraction z-score (KCl minus unstimulated); higher = stronger activity-induced IEG response

Structure (SMILES)	nucleus area z-score [1]	total neurite length per nucleus (z-score) [2]	nucleus roundness z-score [3]	KCl-induced FOS+/EGR-1+ double-positive nuclei fraction z-score [4]
C#C[C@]1(O)CC[C@H]2[C@@H]3CCC4=CC(=O)CC[C@@H]4[C@H]3CC[C@@]21CC [Levonorgestrel]	0.586	-1.53	-0.348	-0.813
CN1C2CCCC1CC(NC(=O)c1nn(C)c3ccccc13)C2 (stereo unspecified) [Granisetron HCl]	-1.74	-0.0203	1.55	-0.959
COc1ccc(-c2cc(=O)c3c(OC)c(OC)c(OC)c(OC)c3o2)cc1OC [Nobiletin]	-1.39	-1.35	-0.94	-0.695
Cc1c(NC(=O)c2ccc(C(C)(C)C)cc2)cccc1-c1cn(C)c(=O)c(Nc2ccc(C(=O)N3CCOCC3)cc2)n1	2.14	1.45	0.806	1.9
C[C@H](Oc1cc(-c2cnn(C3CCNCC3)c2)cnc1N)c1c(Cl)ccc(F)c1Cl [(S)-crizotinib]	-0.884	-0.947	-1.15	0.578
CCc1c(C(=O)NCCc2ccc(N3CCCCC3)cc2)[nH]c2ccc(Cl)cc12	0.126	0.387	0.399	1.13
C=C1C[C@@]2(O)O[C@@]3(C[C@H]2C(C)C)[C@@H](C)CC[C@@H]13 [Curcumol]	-0.19	0.0675	-0.0886	-0.425
CC(=O)Oc1cc(C(F)(F)F)ccc1C(=O)O [Triflusal]	-1.97	0.0742	-0.586	-0.696
CCN(CC)CCNC(=O)c1ccc(N)cc1 [Procainamide HCl]	-0.277	0.619	0.0739	-0.0244
O=C1Cc2c([nH]c3ccc(Br)cc23)-c2ccccc2N1 [Kenpaullone]	0.273	0.216	0.882	1.59
CCCN(CCc1cccs1)[C@H]1CCc2c(O)cccc2C1 [Rotigotine]	-0.183	-0.428	-0.0272	-0.285
OC[C@@H](O)CN1CCN(c2ccccc2)CC1 [Levodropropizine]	0.554	0.667	-0.355	1.77
Cn1c(=O)c2c(ncn2CC(O)CO)n(C)c1=O (stereo unspecified) [Dyphylline]	0.244	0.115	0.0132	1.19
Cc1nc2n(c(=O)c1CCN1CCC(c3noc4cc(F)ccc34)CC1)CCCC2O (stereo unspecified) [Paliperidone]	0.0316	0.724	1.74	2.05
C[C@@H]1C[C@H]2[C@@H]3CCC4=CC(=O)C=C[C@]4(C)[C@@]3(Cl)[C@@H](O)C[C@]2(C)[C@@]1(OC(=O)c1ccco1)C(=O)CCl [Mometasone furoate]	0.652	-0.876	-0.946	-0.944
CCC[C@@H]1C[C@@H](C(=O)N[C@@H]([C@H]2O[C@H](SC)[C@H](O)[C@@H](O)[C@H]2O)[C@@H](C)O)N(C)C1 [Lincomycin HCl]	-0.355	0.61	0.236	0.213
Cc1cccn2c(=O)c(-c3nnn[nH]3)cnc12 [Pemirolast potassium]	-0.43	0.604	0.755	-0.779
Cn1nnc2c(C(N)=O)ncn2c1=O [Temozolomide]	-2.86	-0.701	-1.31	-0.578
CC1(C)CNc2cc(NC(=O)c3cccnc3NCc3ccncc3)ccc21 [Motesanib Diphosphate (AMG-706)]	-0.451	2.5	0.195	-0.468
Cc1cc(Nc2ncc(Cl)c(Nc3ccccc3S(=O)(=O)C(C)C)n2)c(OC(C)C)cc1C1CCNCC1	-16.1	-4.56	-2.94	-0.894

Structure (SMILES)	nucleus area z-score [1]	total neurite length per nucleus (z-score) [2]	nucleus roundness z-score [3]	KCl-induced FOS+/EGR-1+ double-positive nuclei fraction z-score [4]
O=c1cc[nH]c(=O)[nH]1 [Uracil]	0.194	0.889	0.914	1.21
Cc1nc(C(=O)NCC(=O)O)c(O)c2ccc(Oc3ccccc3)cc12	1.77	0.19	1.41	1.75
Cc1cc2c(s1)Nc1ccccc1N=C2N1CCN(C)CC1 [Olanzapine]	-0.0934	-0.395	0.108	0.209
N#C/C(=C(/N)Sc1ccc(N)cc1)c1ccccc1C(F)(F)F	2.73	0.844	0.433	0.798
C[C@H](NC(=O)C(=O)Nc1ccccc1C(C)(C)C)C(=O)N[C@@H](CC(=O)O)C(=O)COc1c(F)c(F)cc(F)c1F [Emricasan]	2.08	0.798	1.21	0.844
CN(C)CC(c1ccc(O)cc1)C1(O)CCCCC1 (stereo unspecified) [Desvenlafaxine Succinate]	0.879	-0.569	-0.472	-0.0728
CNC[C@H](O)[C@@H](O)[C@H](O)[C@H](O)CO [Meglumine]	-0.66	1.64	0.179	0.642
OC[C@@H](O)[C@H](O)[C@@H](O)CO [Xylitol]	0.703	-0.0854	0.496	-1.01
c1ccc(CNc2ncnc3[nH]cnc23)cc1 [6-Benzylaminopurine]	0.908	-1.74	-1.88	0.446
CNC(=O)c1nn(C)c2c1C(C)(C)Cc1cnc(Nc3ccc(N4CCN(C)CC4)cc3)nc1-2	-6.29	-1.38	-4.96	-0.55
N#C[C@@H]1CCCN1C(=O)CNC12CC3CC(CC(O)(C3)C1)C2 [Vildagliptin (LAF-237)]	-0.197	-0.808	-0.306	0.529
CN(C/C=C/C#CC(C)(C)C)Cc1cccc2ccccc12 [Terbinafine HCl]	-0.774	-1.18	-1.4	-0.392
COc1ccc(CCC(=O)Nc2nc3ccc(Cl)cc3s2)cc1OC	0.79	0.0532	0.35	1.48
Cc1ncc(Cl)cc1NCc1ccc(C(=O)N[C@@H](CC2CCCC2)C(=O)NC2CC2)s1	0.877	0.0179	0.0328	-0.236
Cc1[nH]nc(C(F)(F)F)c1Cc1sc2c(c1C(=O)N1C[C@](C)(O)CO1)c(=O)n(C)c(=O)n2C(C)C	-0.292	0.142	-0.769	-0.736
O=C(CCCCCCC(=O)Nc1ccc([C@H]2O[C@@H](CSc3nc(-c4ccccc4)c(-c4ccccc4)o3)C[C@@H](c3ccc(CO)cc3)O2)cc1)NO [Tubacin]	-0.35	0.826	0.988	0.424
Cc1ccc(S(=O)(=O)n2c(N)nc3ccccc32)cc1 [ML130 (Nodinitib-1)]	-0.288	0.411	1.05	1.29
C=C(c1ccc(C(=O)O)cc1)c1cc2c(cc1C)C(C)(C)CCC2(C)C [Bexarotene]	1.13	-0.945	-1.95	0.122
NS(=O)(=O)c1ccc(NC(=O)Nc2ccc(F)cc2)cc1	0.626	0.362	1.16	0.115
CC(C)(C)c1ccc(S(=O)(=O)NCc2ccc(C(=O)Nc3cccnc3)cc2)cc1	1.07	-0.489	-0.525	0.362

An excerpt from above, reduced to KCl-induced FOS+/EGR-1+ double-positive nuclei fraction z-score [4] and nucleus roundness z-score [3].
Structure (SMILES),KCl-induced FOS+/EGR-1+ double-positive nuclei fraction z-score [4],nucleus roundness z-score [3]
CNC(=O)c1nn(C)c2c1C(C)(C)Cc1cnc(Nc3ccc(N4CCN(C)CC4)cc3)nc1-2,-0.55,-4.96
N#C[C@@H]1CCCN1C(=O)CNC12CC3CC(CC(O)(C3)C1)C2 [Vildagliptin (LAF-237)],0.529,-0.306
CN(C/C=C/C#CC(C)(C)C)Cc1cccc2ccccc12 [Terbinafine HCl],-0.392,-1.4

(list continues)

Structure (SMILES)	nucleus area z-score [1]	total neurite length per nucleus (z-score) [2]	nucleus roundness z-score [3]	KCl-induced FOS+/EGR-1+ double-positive nuclei fraction z-score [4]
NC(=O)Nc1sc(-c2ccc(F)cc2)cc1C(N)=O	0.489	0.407	-0.0605	-0.793
Cc1nc(N)sc1-c1ccnc(Nc2ccc(N3CCOCC3)cc2)n1	2.04	0.827	1.58	2.17
C/C(=C\C(=O)OCCCCCCCCC(=O)O)C[C@@H]1OC[C@H](C[C@@H]2O[C@H]2[C@@H](C)[C@H](C)O)[C@@H](O)[C@H]1O [Mupirocin]	0.226	-0.0276	0.104	2.8
Cc1nc(Nc2ncc(C(=O)Nc3c(C)cccc3Cl)s2)cc(N2CCN(CCO)CC2)n1 [Dasatinib Monohydrate]	-4.95	-3.99	-0.974	-0.563
Cn1cc(/C=C2\C(=O)Nc3cccnc32)c2ccccc21	-0.00153	0.142	-0.414	0.834
CC1(C)CCC(CN2CCN(c3ccc(C(=O)NS(=O)(=O)c4ccc(NCC5CCOCC5)c([N+](=O)[O-])c4)c(Oc4cnc5[nH]ccc5c4)c3)CC2)=C(c2ccc(Cl)cc2)C1	1.89	0.385	-0.272	0.0781
CCN(CC)CCOC(=O)C(c1ccccc1)c1ccccc1 [Adiphenine HCl]	-1.5	1.29	0.584	1.48
CC(C)(C#N)c1ccc(N2C(=O)OCc3cnc4ccc(-c5cnc6ccccc6c5)cc4c32)cc1	0.816	1	2.22	4.67
CNC(=O)c1ccc(N2C(=S)N(c3ccc(C#N)c(C(F)(F)F)c3)C(=O)C2(C)C)cc1F [Enzalutamide (MDV3100)]	2.84	-0.221	-0.0993	1.68
CC(C(=O)O)c1ccc2c(c1)CC(=O)c1ccccc1S2 (stereo unspecified) [Zaltoprofen]	-0.164	0.173	0.524	-0.0598
COc1ccc(CNC(=O)Nc2ncc([N+](=O)[O-])s2)cc1	0.895	2.2	1.73	1.24
O=C(Nc1nc2cccc(-c3ccc(CN4CCS(=O)(=O)CC4)cc3)n2n1)C1CC1 [Filgotinib (GLPG0634)]	1.73	0.203	0.625	0.437
COc1cccc2c1C(=O)c1c(O)c3c(c(O)c1C2=O)C[C@@](O)(C(C)=O)C[C@@H]3O[C@H]1C[C@H](N)[C@H](O)[C@H](C)O1 [Daunorubicin HCl]	-9.83	-4.93	1.2	-1.33
CCOC(=O)N1CCC(=C2c3ccc(Cl)cc3CCc3cccnc32)CC1 [Loratadine]	-0.56	-0.2	-0.396	-0.571
CCC1(c2ccccc2)C(=O)NCNC1=O [Primidone]	-0.537	0.867	0.219	0.57
Cc1ccc(-n2sc(=O)n(Cc3ccc(F)cc3)c2=O)cc1	0.821	-0.361	-0.531	-1.13
CNc1ncnc2c1ncn2[C@@H]1O[C@H](CO)[C@@H](O)[C@H]1O [N6-methyladenosine (m6A)]	0.231	1.44	1.3	0.439
Cc1cc(-n2c(=O)[nH]c(=O)n(C)c2=O)ccc1Oc1ccc(SC(F)(F)F)cc1 [Toltrazuril]	-0.0206	-0.586	0.202	-0.218
CN[C@H]1CN(c2ccc3c(=O)c(C(=O)O)cn(-c4nccs4)c3n2)C[C@@H]1OC [Voreloxin (SNS-595)]	0.214	2.44	0.23	2.29
